Results deposited as PubChem BioAssay AID1159584 (Peter MacCallum Cancer Centre, 2016)
Test: 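Knock-downs that harm CDH1-null cells more than parental MCF10A cells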 (primary screen). Cell system: human MCF10A breast epithelial cells, parental and CDH1-null. Knock-down reagent: siRNA against human genes. Read-out: 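Cell viability by CellTiter-Glo ATP luminescence, each line scaled to the mean of mock wells across plates, then CDH1-null over parental ratio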. Direction: CDH1-null / parental viability ratio: higher = CDH1-null cells survive relatively better than parental; CDH1-null viability vs mock: higher = more viable CDH1-null cells; parental viability vs mock: higher = more viable parental cells.
In all, the deposit lists about 18,000 reagents; shown is a part drawn at random. The record does not give: the amount of reagent, the time to read-out.

gene knocked down	CDH1-null / parental viability ratio	CDH1-null viability vs mock (fraction of mock)	parental viability vs mock (fraction of mock)
OR13D1 (olfactory receptor family 13 subfamily D member 1)	1.02	0.92	0.9
IL10 (interleukin 10)	1.02	0.82	0.8
MAPRE3 (microtubule associated protein RP/EB family member 3)	0.8	0.86	1.08
ECHS1 (enoyl-CoA hydratase, short chain 1)	1.17	1.02	0.87
OR7D4 (olfactory receptor family 7 subfamily D member 4)	0.84	0.74	0.88
BTC (betacellulin)	1.06	0.82	0.77
APOL3 (apolipoprotein L3)	1.03	0.97	0.94
CAMKMT (calmodulin-lysine N-methyltransferase)	0.99	0.82	0.83
GNA13 (G protein subunit alpha 13)	1.07	1.06	0.99
SLC22A16	0.91	0.64	0.7
POP1 (POP1 ribonuclease P/MRP subunit)	1.02	0.63	0.62
G6PC1 (glucose-6-phosphatase catalytic subunit 1)	1.47	1	0.68
EMX1 (empty spiracles homeobox 1)	0.92	0.46	0.5
SP6 (Sp6 transcription factor)	1.13	0.6	0.53
OR11L1 (olfactory receptor family 11 subfamily L member 1)	0.85	0.71	0.84
CDK4 (cyclin dependent kinase 4)	1.15	0.94	0.82
SFT2D3 (SFT2 domain containing 3)	1	0.8	0.8
ITPA (inosine triphosphatase)	0.93	0.84	0.9
CHRND (cholinergic receptor nicotinic delta subunit)	1.29	0.9	0.7
ZNHIT3 (zinc finger HIT-type containing 3)	0.73	0.38	0.52
KDF1 (keratinocyte differentiation factor 1)	1.04	0.54	0.52
TK1 (thymidine kinase 1)	1.1	0.92	0.84
CASP2 (caspase 2)	1.14	0.74	0.65
HYCC2 (hyccin PI4KA lipid kinase complex subunit 2)	0.89	0.4	0.45
CFAP206 (cilia and flagella associated protein 206)	1.05	0.9	0.86
NR2F6 (nuclear receptor subfamily 2 group F member 6)	0.97	0.74	0.76
GALNT3 (polypeptide N-acetylgalactosaminyltransferase 3)	0.97	0.7	0.72
DNALI1 (dynein axonemal light intermediate chain 1)	0.95	0.52	0.55
TTK (TTK protein kinase)	1.04	0.72	0.69
HSPA5 (heat shock protein family A (Hsp70) member 5)	0.95	0.77	0.81
PARD3 (par-3 family cell polarity regulator)	1.02	0.62	0.61
TRIM17 (tripartite motif containing 17)	1.01	0.92	0.91
LRRC46 (leucine rich repeat containing 46)	0.79	0.67	0.85
ZNF605 (zinc finger protein 605)	1.26	0.92	0.73
PRIMA1 (proline rich membrane anchor 1)	1.02	0.86	0.84
PGBD2 (piggyBac transposable element derived 2)	1.04	0.54	0.52
CEP15 (centrosomal protein 15)	0.79	0.48	0.61
RBSN (rabenosyn, RAB effector)	1	0.83	0.83
FAM20C (FAM20C golgi associated secretory pathway kinase)	1.48	0.92	0.62
SYT4 (synaptotagmin 4)	0.84	0.46	0.55
STX1B (syntaxin 1B)	1.29	0.98	0.76
COPS7B (COP9 signalosome subunit 7B)	1.28	0.74	0.58
MAGEC2 (MAGE family member C2)	0.93	0.84	0.9
ARPC5L (actin related protein 2/3 complex subunit 5 like)	1.05	0.9	0.86
AMDHD2 (amidohydrolase domain containing 2)	1.01	0.73	0.72
NPY4R (neuropeptide Y receptor Y4)	0.63	0.57	0.9

Sorted by “CDH1-null viability vs mock (fraction of mock)” (descending): 4 of the entries above
gene knocked down	CDH1-null / parental viability ratio	CDH1-null viability vs mock (fraction of mock)	parental viability vs mock (fraction of mock)
CFAP206 (cilia and flagella associated protein 206)	1.05	0.9	0.86
NR2F6 (nuclear receptor subfamily 2 group F member 6)	0.97	0.74	0.76
GALNT3 (polypeptide N-acetylgalactosaminyltransferase 3)	0.97	0.7	0.72
DNALI1 (dynein axonemal light intermediate chain 1)	0.95	0.52	0.55
